Patent US20200385479A1
These are yes or no findings as the source states them, for the method shown. Some binding calls cover weakened binding; strength is not graded here. Blank lines part the entries; values can stand above or below the binder they belong to.

How the values were obtained:
[1] = biological target: cynomolgus monkey CD137 expressed on CHO cells (cynomolgus monkey); experiment: FACS on CHO cells over-expressing cynomolgus monkey CD137
[2] = biological target: cynomolgus monkey CD137 expressed on CHO cells (cynomolgus monkey); experiment: FACS on CHO cells over-expressing cynomolgus monkey CD137, goat F(ab')2 anti-human IgG-Fc PE

binding [1]: binds | binding [2]: binds
B1: LYV402 (26B3-IgG4) (antibody, V domains shown)
VH: EVKLLESGGGLVQPGGSLKLSCAASGFDFSRYWMSWVRQAPGKGLEWIGEINPDSNPINYTPSLKDKFIISRDNAKNTLYLQMSKVRSEDTALYYCARDGSSSRYFDVWGAGTTVTVSS
VL: DIVMTQSPATLSVTPGDRVSLSCRASQSISDYLHWYQQKSHESPRLLIKYVSQSISGIPSRFSGSGSGSDFTLSINSVEPEDVGVYYCQNGHSFPPTFGGGTKLEIKR

binding [1]: binds | binding [2]: binds
B2: LYV390 (30C11-IgG4) (antibody, V domains shown)
VH: QIQLVQSGPELKKPGESVKISCKASGYTFTDYAMHWVKQAPGKALKWMGLINTYTGKPTYVDDLKGRFVFSLEASASTAKLQISNLKNEDTAIYFCARYYHDGTYYGWFANWGQGTLVTVSS
VL: DTVLTQSPALAVSPGERVTVSCGATESVSTALNWYQQKPGQQPRLLIYGASNLESGVPARFSGSGSGTDFTLSIDPVEADDTATYFCQQTWNDPLTFGSGTKLEIKR

binding [1]: binds | binding [2]: binds
B3: LYV371 (11E10-IgG4) (antibody, V domains shown)
VH: QVQLQQSGAELVRPGASVTLSCKASGYTFAGFEMHWIKQTPVHGLGWIGAIDPKTGGTDYNQKFKDKALLTADKSSNTAYMELRSLTSEDSAVYYCTRDLGYFDVWGTGTTVTVSS
VL: DIQMTQTTSSLSASLGDRVTISCRASQDIRSNLNWYQQKPDGTVKLLIYYTSRLHSGVPSRFSGSGSGTDYSLTISNLEQEDIATYFCQQSEKLPRTFGGGTKLEIRR
